Experimental data from US20190177419A1 (BERGEN TEKNOLOGIOVERFORING, published 2019).
Results are given in words; binding and its absence hold for the method and conditions named. Some results given as binding are weak or reduced against the parent protein; the word gives no strength. For some of these results: Sequences can lack the tags named with a protein.

By UniProt entry, the sequences of proteins in these tests, tags left out. Where a name states a change or a piece, a line headed by the entry shows the natural chain unless it says otherwise. Residues count along the entry.
UniProt P30530, residues 26-451: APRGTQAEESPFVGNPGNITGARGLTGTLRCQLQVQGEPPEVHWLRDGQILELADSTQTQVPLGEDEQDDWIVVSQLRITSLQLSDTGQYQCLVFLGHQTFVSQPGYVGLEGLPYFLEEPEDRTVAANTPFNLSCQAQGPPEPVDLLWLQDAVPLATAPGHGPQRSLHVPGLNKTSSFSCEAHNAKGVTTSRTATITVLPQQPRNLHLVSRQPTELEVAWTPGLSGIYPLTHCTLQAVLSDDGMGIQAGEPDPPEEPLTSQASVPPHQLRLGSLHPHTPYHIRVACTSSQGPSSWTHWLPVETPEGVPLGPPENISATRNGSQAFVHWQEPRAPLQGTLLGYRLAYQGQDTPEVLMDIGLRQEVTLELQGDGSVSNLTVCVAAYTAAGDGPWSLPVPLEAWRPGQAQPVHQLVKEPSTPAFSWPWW

Key:
[1] = molecular target: T1, recombinant human Tyro3/Dtk-Fc chimera (R&D Systems, Cat. no. 859-DK) (human) (UniProt Q06418); assay: SPR (Biacore 3000), rhTyro3/Dtk-Fc immobilised on a CM5 chip, rmGas6 injected at 10 µg/mL for 3 min, 5 min dissociation [panel rmGas6]
T1 sequence: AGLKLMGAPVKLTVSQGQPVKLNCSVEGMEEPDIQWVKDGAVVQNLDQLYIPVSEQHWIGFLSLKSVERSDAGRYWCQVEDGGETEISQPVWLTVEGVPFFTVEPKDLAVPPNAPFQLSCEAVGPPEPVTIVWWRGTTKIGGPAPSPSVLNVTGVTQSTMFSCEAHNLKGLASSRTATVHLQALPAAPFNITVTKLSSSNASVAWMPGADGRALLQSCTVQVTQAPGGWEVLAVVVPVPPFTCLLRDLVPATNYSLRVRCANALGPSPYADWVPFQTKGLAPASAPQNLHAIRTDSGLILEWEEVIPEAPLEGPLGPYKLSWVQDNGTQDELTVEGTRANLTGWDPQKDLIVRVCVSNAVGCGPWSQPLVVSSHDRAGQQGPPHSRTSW

[2] = molecular target: recombinant human Axl-Fc chimera (R&D Systems, Cat. no. 154-AL) (human) (UniProt P30530); assay: SPR, Biacore 3000, rhAxl-Fc immobilised on CM5, rmGas6 10 µg/mL
[3] = molecular target: recombinant human Axl-Fc chimera (R&D Systems, Cat. no. 154-AL) (human) (UniProt P30530); assay: SPR (Biacore 3000), rhAxl-Fc immobilised on a CM5 chip, rmGas6 injected at 10 µg/mL for 3 min, 5 min dissociation [panel rmGas6]
[4] = molecular target: T1, recombinant human Tyro3/Dtk-Fc chimera (R&D Systems, Cat. no. 859-DK) (human); assay: SPR, Biacore 3000, rhTyro3/Dtk-Fc immobilised on CM5, rmGas6 10 µg/mL

Measured: binding

B1: recombinant mouse Gas6 (R&D Systems, Cat. no. 986-GS/CF) (ligand, UniProt Q61592 115-673, looked up)
chain: DQCTPNPCDKKGTHICQDLMGNFFCVCTDGWGGRLCDKDVNECVQKNGGCSQVCHNKPGSFQCACHSGFSLASDGQTCQDIDECTDSDTCGDARCKNLPGSYSCLCDEGYTYSSKEKTCQDVDECQQDRCEQTCVNSPGSYTCHCDGRGGLKLSPDMDTCEDILPCVPFSMAKSVKSLYLGRMFSGTPVIRLRFKRLQPTRLLAEFDFRTFDPEGVLFFAGGRSDSTWIVLGLRAGRLELQLRYNGVGRITSSGPTINHGMWQTISVEELERNLVIKVNKDAVMKIAVAGELFQLERGLYHLNLTVGGIPFKESELVQPINPRLDGCMRSWNWLNGEDSAIQETVKANTKMQCFSVTERGSFFPGNGFATYRLNYTRTSLDVGTETTWEVKVVARIRPATDTGVLLALVGDDDVVPISVALVDYHSTKKLKKQLVVLAVEDVALALMEIKVCDSQEHTVTVSLREGEATLEVDGTKGQSEVSTAQLQERLDTLKTHLQGSVHTYVGGLPEVSVISAPVTAFYRGCMTLEVNGKILDLDTASYKHSDITSHSCPPVEHAT
binds: [1] | [2] | [3] | [4]
